{
  "source": "patent US12473352",
  "about": "(SUN YAT SEN UNIVERSITY, dated 2025)",
  "key": {"human IFP35 protein [1]": {"target": "T1, human IFP35 protein (human, UniProt P80217 1-286, limits assumed)", "T1 construct": "also called interferon-induced protein 35; IFI35", "T1 chain": "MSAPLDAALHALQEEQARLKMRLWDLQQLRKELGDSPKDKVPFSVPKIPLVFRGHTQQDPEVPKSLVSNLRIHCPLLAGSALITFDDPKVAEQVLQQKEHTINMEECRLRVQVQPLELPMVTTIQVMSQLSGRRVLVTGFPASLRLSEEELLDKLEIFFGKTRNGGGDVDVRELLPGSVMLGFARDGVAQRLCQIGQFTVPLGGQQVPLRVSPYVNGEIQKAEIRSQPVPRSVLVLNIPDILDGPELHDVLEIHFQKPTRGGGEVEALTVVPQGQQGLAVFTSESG", "experiment": "ELISA (OD450) on human IFP35 protein"}, "human IFP35 protein [2]": {"target": "T1, human IFP35 protein", "experiment": "antigen binding test of FIG. 11"}, "human IFP35 protein [3]": {"target": "T1, human IFP35 protein", "experiment": "ELISA (OD450) on antigen IFP35"}},
  "note": "No constants are given. Whether binding was seen depends on the method and setting. Some binding calls cover weakened binding; strength is not graded here.",
  "data": [
    {"binder": "35NIDmAb (antibody, V domains shown, Mouse monoclonal antibody from hybridoma ascites; also called AE001-VH+VL; AE001-VH+VL (35NIDmAb)) VH: VQLVESGPELKKPGETVKISCKASGYTFTNYGMNWVKQAPGKGLKWMGWINTYTGEPTFADDFKGRFAFSLETSASTAYLQINNLKNEDTATYFCARYGYSWAMDYWGQGTSVTVSS VL: DIVMTQSPAIMSASPGEKVTMTCSASSSVSYMHWYQQKSGTSPKRWIYDTSKLASGVPARFSGSGSGTSYSLTISSMEAEDAATYYCQQWSSNPPITFGAGTKLEIK", "values": [
      {"measurement": "binding", "setting": "human IFP35 protein [1]", "result": "binds"}
    ]},
    {"binder": "AE001-H3+L3 (antibody, V domains shown, The same doubt about the 'constant region' label applies as for AE001-H1+L1; also called AE001H3 + AE001L3; humanized antibody) VH: QVQLVQSGAEVKKPGASVKVSCKASGYTFTNYGMNWVRQAPGQGLEWMGWINTYTGEPTVAQKFQGRFTFTLDTSTSTAYLELSSLRNEDTAVYFCARYGYSWAMDYWGQGTSVTVSS VL: DIQMTQSPSSLSASVGDRVTITCQASSSVSYMHWYQQKPGKAPKRLIYDTSKLASGVPSRFSGSGSGTDYTLTISSLQPEDIATYYCQQWSSNPPITFGAGTKLEIK", "values": [
      {"measurement": "binding", "setting": "human IFP35 protein [2]", "result": "binds"},
      {"measurement": "binding", "setting": "human IFP35 protein [3]", "result": "binds"},
      {"measurement": "binding", "setting": "human IFP35 protein [1]", "result": "binds"}
    ]},
    {"binder": "AE001-6 (antibody, human IgG1, V domains shown, Human IgG1; CDR mutant of AE001-H3+L3; also called AE001-6Hc + Lc; AE001-6HC + LC) VH: QVQLVQSGAEVKKPGASVKVSCKASGYTFTNYGMNWVRQAPGQGLEWMGWINTYTGEPTVAQKFQGRFTFTLDTSTSTAYLELSSLRNEDTAVYFCARYGYSWAMDYWGQGTSVTVSS VL: DIQMTQSPSSLSASVGDRVTITCQASSSVSYMHWYQQKPGKAPKRLIYDTSKLASGVPSRFSGSGSGTDYTLTISSLQPEDIATYYCQQWSPYPPITFGAGTKLEIK", "values": [
      {"measurement": "binding", "setting": "human IFP35 protein [3]", "result": "binds"}
    ]},
    {"binder": "AE001-7 (antibody, human IgG1, V domains shown, Human IgG1; CDR mutant of AE001-H3+L3; also called AE001-6Hc + 7Lc; AE001-6HC + 7LC) VH: QVQLVQSGAEVKKPGASVKVSCKASGYTFTNYGMNWVRQAPGQGLEWMGWINTYTGEPTVAQKFQGRFTFTLDTSTSTAYLELSSLRNEDTAVYFCARYGYSWAMDYWGQGTSVTVSS VL: DIQMTQSPSSLSASVGDRVTITCQASSSVSYMHWYQQKPGKAPKRLIYDTSKLASGVPSRFSGSGSGTDYTLTISSLQPEDIATYYCQQWSSNSWSTFGAGTKLEIK", "values": [
      {"measurement": "binding", "setting": "human IFP35 protein [3]", "result": "binds"}
    ]},
    {"binder": "AE001-8 (antibody, human IgG1, V domains shown, Human IgG1; CDR mutant of AE001-H3+L3; also called AE001-6Hc + 8Lc; AE001-6HC + 8LC) VH: QVQLVQSGAEVKKPGASVKVSCKASGYTFTNYGMNWVRQAPGQGLEWMGWINTYTGEPTVAQKFQGRFTFTLDTSTSTAYLELSSLRNEDTAVYFCARYGYSWAMDYWGQGTSVTVSS VL: DIQMTQSPSSLSASVGDRVTITCQASSSVSYMHWYQQKPGKAPKRLIYDTSKLASGVPSRFSGSGSGTDYTLTISSLQPEDIATYYCQQWSPLPPITFGAGTKLEIK", "values": [
      {"measurement": "binding", "setting": "human IFP35 protein [3]", "result": "binds"}
    ]},
    {"binder": "AE001-9 (antibody, human IgG1, V domains shown, Human IgG1; CDR mutant of AE001-H3+L3; also called AE001-6Hc + 9Lc; AE001-6HC + 9LC) VH: QVQLVQSGAEVKKPGASVKVSCKASGYTFTNYGMNWVRQAPGQGLEWMGWINTYTGEPTVAQKFQGRFTFTLDTSTSTAYLELSSLRNEDTAVYFCARYGYSWAMDYWGQGTSVTVSS VL: DIQMTQSPSSLSASVGDRVTITCQASSSVSYMHWYQQKPGKAPKRLIYDTSKLASGVPSRFSGSGSGTDYTLTISSLQPEDIATYYCQQWSPRPPITFGAGTKLEIK", "values": [
      {"measurement": "binding", "setting": "human IFP35 protein [3]", "result": "binds"}
    ]},
    {"binder": "AE001-H2+L2 (antibody, V domains shown, Humanized form of 35NIDmAb with the same CDRs; The same doubt about the 'constant region' label applies as for AE001-H1+L1; also called AE001H2 + AE001L2; humanized antibody) VH: QVQLVQSGAEVKKPGASVKISCKASGYTFTNYGMNWVRQAPGQGLEWMGWINTYTGEPTFAQKFQGRFTFTLDTSTSTAYLEISSLRNEDTAVYFCARYGYSWAMDYWGQGTSVTVSS VL: DIQMTQSPSSLSASVGDRVTMTCQASSSVSYMHWYQQKPGKAPKRWIYDTSKLASGVPSRFSGSGSGTDYTLTISSMQPEDIATYYCQQWSSNPPITFGAGTKLEIK", "values": [
      {"measurement": "binding", "setting": "human IFP35 protein [2]", "result": "binds"},
      {"measurement": "binding", "setting": "human IFP35 protein [1]", "result": "binds"}
    ]},
    {"binder": "AE001-H1+L1 (antibody, V domains shown, also called AE001H1 + AE001L1; humanized antibody) VH: QVQLVESGAEVKKPGASVKISCKASGYTFTNYGMNWVKQAPGQGLKWMGWINTYTGEPTFAQDFQGRFTFTLDTSASTAYLQISSLRNEDTAVYFCARYGYSWAMDYWGQGTSVTVSS VL: DIQMTQSPSSMSASVGDRVTMTCQASSSVSYMHWYQQKPGKSPKRWIYDTSKLASGVPSRFSGSGSGTDYTLTISSMQPEDIATYYCQQWSSNPPITFGAGTKLEIK", "values": [
      {"measurement": "binding", "setting": "human IFP35 protein [2]", "result": "binds"},
      {"measurement": "binding", "setting": "human IFP35 protein [1]", "result": "binds"}
    ]}
  ]
}
